Reference: PubChem BioAssay AID504467 (National Center for Advancing Translational Sciences (NCATS), 2011)
The whole screen tested about 330,000 compounds, of which about 7,700 (2.3%) were called active. The shares of active, inactive and inconclusive entries below differ from those in the screen. The call rests on the fitted dose curve; in most records, active means well fitted inhibition curve with a large enough effect; inconclusive means small, poorly fitted or top-dose-only effect, or effect the other way; inactive means flat fitted curve, though single readings scatter. Potencies beside an inconclusive call are fits to weak or partial responses and may not hold up.

Experiment: qHTS screen for small molecules that inhibit ELG1-dependent DNA repair in human embryonic kidney (HEK293T) cells expressing luciferase-tagged ELG1; further: nearly all actives have a fitted effect of over 55% in size
Details: HEK293T ELG1-luciferase reporter, luminescence, 16 h, DNA damage induced by 5-fluorouridine; series mostly up to 46.1 µM
Summary of the method: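 Luminescence from the luciferase reporter, measured 30 min after ONE-Glo reagent at room temperature, was the read-out. Beforehand, 2,000 cells per well were exposed for 16 hr at 37 °C to 5-fluorouridine together with compound or vehicle.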
Potency means the concentration at half of the fitted maximal effect.

SMILES | Potency
Cc1ccc(NC(=O)C2C3CCC(O3)C2C(=O)O)cc1Cl (configuration not stated) | inactive
O=c1ccc2cc(S(=O)(=O)N3CCOCC3)ccc2o1 | inconclusive: 23.1 µM [activator, partial curve, poor fit]
Clc1c(-c2ccccc2)nc2ccccn12 | inconclusive: 23.1 µM [activator, partial curve]
Cc1ccc(OCC(=O)NC(=S)Nc2ccc(S(=O)(=O)Nc3cc(C)on3)cc2)c(Br)c1 | inactive
c1ccc(OCc2nc3c4c(ncn3n2)-c2ccccc2CC42CCCC2)cc1 | inconclusive: 1.64 µM [inhibitor, partial curve, poor fit]
Fc1ccccc1/C=N/Nc1ncnc2nc[nH]c12 | inconclusive: 20.6 µM [activator, partial curve]
O=C1COc2ccc(C(=O)COC(=O)c3ccccc3F)cc2N1 | inconclusive: 4.61 µM [activator, partial curve]
Cc1c(NC(=O)CN2CCN(c3ccc(F)cc3)CC2)c(=O)n(-c2ccccc2)n1C | inactive
Cc1ccc(-c2c(C#N)c(N)n3c(nc4ccccc43)c2C#N)cc1 | active: 18.4 µM
O=C(NCCC1=CCCCC1)C1CCN(C(=O)Cc2ccccc2)CC1 | inactive
Cc1ccc(-c2nnn(CC(=O)N(c3cccc(F)c3)C(C(=O)NC3CCCC3)c3ccco3)n2)o1 (configuration not stated) | inconclusive: 20.6 µM [activator, partial curve, poor fit]
Cc1ccc(S(=O)(=O)N2[C@@H](c3cccc(C)c3)C(C(=O)O)=C[C@H]2C(C)(C)C)cc1 | inactive
COc1ccc(-n2c(=O)c(CCC(=O)N(C)Cc3ccccc3C)nc3ccccc32)cc1 | inconclusive: 16.4 µM [inhibitor, single point]
CC(Oc1ccc2cc(-c3ccccc3)c(=O)oc2c1)C(=O)NCC1CCC(C(=O)O)CC1 (configuration not stated) | inconclusive: 1.16 µM [activator, single point]
Cc1cc(C)cc(N(CC(=O)NCc2ccc(F)cc2)C(=O)CCC(=O)Nc2ccccn2)c1 | inconclusive: 23.1 µM [inhibitor, single point]
O=S(=O)(NCC1CCCO1)c1cnc(Cl)c(Cl)c1 (configuration not stated) | inconclusive: 29.1 µM [inhibitor, single point]
c1ccc2[nH]c(SCCN3CCOCC3)nc2c1 | inconclusive: 20.6 µM [activator, partial curve]
COc1ccc(/C=N/NC(=O)c2ccn[nH]2)cc1Cn1cc([N+](=O)[O-])cn1 | inconclusive: 16.4 µM [activator, single point]
COc1ccc(-n2c(SCC(=O)Nc3cc(C)on3)nc3c([nH]c4ccccc43)c2=O)cc1OC | inconclusive: 20.6 µM [inhibitor, partial curve]
COc1ccc(Cl)cc1NC(=O)CN(C)CC(=O)Nc1cccc(S(=O)(=O)N2CCCC2)c1 | inconclusive: 18.3 µM [inhibitor, single point]
Cc1cc(OC(C)C(=O)NCc2cccnc2)c2c(C)cc(=O)oc2c1 (configuration not stated) | inconclusive: 23.1 µM [activator, partial curve, poor fit]
Nc1ccc(C(=O)N/N=C/c2cn(Cc3ccccc3)c3ccccc23)cc1 | inactive
Cc1nn(C)cc1/C=C1\SC(=S)NC1=O | inconclusive: 29.1 µM [activator, single point]
CC(c1ccccc1)N1CCn2c(nc3cc(NC(=O)NC4CCCCC4)ccc32)C1 (configuration not stated) | inconclusive: 18.4 µM [activator, partial curve]

SMILES | Potency
CCNC(=S)NCc1ccc(F)cc1 | inactive
CC(=O)NS(=O)(=O)c1ccc(NC(=O)c2cccc(S(=O)(=O)N3CCc4ccccc43)c2)cc1 | inactive
COc1ccc2ncn(-c3ccccc3)c2c1 | active: 2.31 µM
S=C(Nc1ccccc1Oc1ccccc1)Nc1cccc(Cl)c1Cl | inactive
Cc1ccc(-c2ccc(S(=O)(=O)NCC3CCCO3)cc2)cc1 (configuration not stated) | inactive
C=CCn1c(SCC(=O)NC(=O)NCc2ccco2)nc2sc(C)c(C)c2c1=O | inconclusive: 23.1 µM [activator, single point]
COc1ccc(N2CCN(C(=O)CCCn3c(=S)[nH]c4cc5c(cc4c3=O)OCO5)CC2)cc1 | active: 20.6 µM
COc1cc(C(=O)NC(C)c2cc(C)ccc2C)ccc1OCC(=O)N1CCOCC1 (configuration not stated) | inactive
CC(OC(=O)COc1ccccc1[N+](=O)[O-])C(=O)Nc1ccc(N2CCOCC2)cc1 (configuration not stated) | inconclusive: 5.17 µM [activator, partial curve]
Cc1ccc(O)c(NC(=O)Cc2ccc3ccccc3c2)c1 | inactive
CC(=O)c1c(C)[nH]c(C(=O)CN(C)CC(=O)Nc2ccccc2Cl)c1C | active: 18.3 µM
Cn1ccsc1=NC(=O)c1ccccc1F | inconclusive: 29.1 µM [activator, single point]
O=C(COC(=O)C1CC2CCCC(C1)C2=O)Nc1cccc(F)c1 (configuration not stated) | inactive
O=C(CSc1nc2ccsc2c(=O)n1NC(=O)c1ccccc1)Nc1nccs1 | inconclusive: 8.2 µM [activator, partial curve]
COc1ccc(C(=O)NC(=S)NNC(=O)COc2ccccc2)cc1 | inactive
CC(c1ccccc1)n1c(-c2ccncc2)n[nH]c1=S (configuration not stated) | inactive
O=C(/C=C/c1ccccc1)N1CCC(c2ccccc2)C1 (configuration not stated) | inconclusive: 10.3 µM [activator, partial curve]
Cn1c(=O)[nH]c2cc3ccccc3cc21 | inconclusive: 9.2 µM [activator, single point]
O=C(Nc1ccccc1)O/N=C/c1ccncc1 | inconclusive: 16.4 µM [activator, single point]
O=S(=O)(c1ccc(NC(=S)N2CCN(c3ccccc3F)CC2)cc1)N1CCOCC1 | active: 23.1 µM
Cc1cc(NC(=O)CSc2cc(Cl)ccc2Cl)n(-c2ccccc2)n1 | active: 25.9 µM
Cc1ccc(NC(=O)CSc2nnnn2-c2ccc3c(c2)OCO3)cc1C | inactive
COc1ccc(/C=C2\Sc3ccc(C(=O)NCc4cccnc4)cc3N(C)C2=O)cc1OC | active: 18.3 µM

Molecules from the list above that have a furan ring, fused or not (two):
SMILES | Potency
Cc1ccc(-c2nnn(CC(=O)N(c3cccc(F)c3)C(C(=O)NC3CCCC3)c3ccco3)n2)o1 (configuration not stated) | inconclusive: 20.6 µM [activator, partial curve, poor fit]
C=CCn1c(SCC(=O)NC(=O)NCc2ccco2)nc2sc(C)c(C)c2c1=O | inconclusive: 23.1 µM [activator, single point]
